These results are taken from US9441237B2, “Auxin receptors” (THE GOVERNORS OF THE UNIVERSITY OF ALBERTA, priority 2010, dated 2016).

The data set can be described thus: Endogenous IAA and 4-Cl-IAA content in developing pea seed tissues (HPLC, GC-MS-SIM isotope dilution). Further details: species or system Pisum sativum.

Molecules are shown by their SMILES.

In the case of `O=C(O)Cc1c[nH]c2cccc(Cl)c12` [4-Cl-IAA, 4-chloroindole-3-acetic acid], the “IAA and 4-Cl-IAA content” value is 84.18 ± 6.44 ng gFw^−1 (cotyledon, 18 DAA); 265.03 ng gFw^−1 (embryo axis, 18 DAA); 141.68 ng gFw^−1 (embryo, 10 DAA); 102.55 ng gFw^−1 (embryo, 12 DAA); 661.68 ± 261.71 ng gFw^−1 (embryo, 14 DAA); 653.97 ng gFw^−1 (embryo, 16 DAA). In addition, the “IAA and 4-Cl-IAA content” value is, setting by setting: (embryo, 18 DAA) 137.7 ± 49.35 ng gFw^−1; (liquid endosperm, 10 DAA) 148.67 ± 33.38 ng/mL; (liquid endosperm, 12 DAA) 238.95 ng/mL; (seed coat, 10 DAA) 840.99 ng gFw^−1; (seed coat, 12 DAA) 486.27 ng gFw^−1; (seed coat, 14 DAA) 128.41 ± 21.25 ng gFw^−1. The “IAA and 4-Cl-IAA content” value is, setting by setting: (seed coat, 16 DAA) 295.22 ng gFw^−1; (seed coat, 18 DAA) 196.08 ng gFw^−1.

For the compound `O=C(O)Cc1c[nH]c2ccccc12` [IAA, indole-3-acetic acid], the “IAA and 4-Cl-IAA content” value came out at 8.46 ± 1.06 ng gFw^−1 (cotyledon, 18 DAA); 71.20 ng gFw^−1 (embryo axis, 18 DAA); 86.22 ng gFw^−1 (embryo, 10 DAA); 28.55 ± 2.42 ng gFw^−1 (embryo, 12 DAA); 19.80 ± 1.83 ng gFw^−1 (embryo, 14 DAA); 36.35 ± 8.46 ng gFw^−1 (embryo, 16 DAA). For the same compound, the “IAA and 4-Cl-IAA content” value runs as follows: (embryo, 18 DAA) 14.56 ± 2.36 ng gFw^−1; (liquid endosperm, 10 DAA) 89.35 ± 19.34 ng/mL; (liquid endosperm, 12 DAA) 244.04 ± 11.04 ng/mL; (seed coat, 10 DAA) 54.95 ± 10.80 ng gFw^−1; (seed coat, 12 DAA) 20.05 ± 1.34 ng gFw^−1; (seed coat, 14 DAA) 8.47 ± 1.15 ng gFw^−1. In addition, the “IAA and 4-Cl-IAA content” value reads like this: (seed coat, 16 DAA) 10.05 ± 1.96 ng gFw^−1; (seed coat, 18 DAA) 5.71 ± 1.04 ng gFw^−1.
